Laboratory results published in PubChem BioAssay AID504467 (National Center for Advancing Translational Sciences (NCATS), 2011).
About 7,700 (2.3%) of roughly 330,000 compounds were called active. Inconclusive means that the source gave no clear call. Such entries were picked first, then a sample of the others. Calls come from the whole dose curve; as a rule, active = well fitted inhibition curve with a large enough effect; inconclusive = small, poorly fitted or top-dose-only effect, or effect the other way; inactive = flat fitted curve, though single readings scatter. Where the call is inconclusive, the potency comes from a doubtful curve fit.

assay: qHTS screen for small molecules that inhibit ELG1-dependent DNA repair in human embryonic kidney (HEK293T) cells expressing luciferase-tagged ELG1; details: HEK293T ELG1-luciferase reporter, luminescence, 16 h, DNA damage induced by 5-fluorouridine; series mostly up to 46.1 µM; note: nearly all actives have a fitted effect of over 55% in size
How it was run: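 Luminescence from the luciferase reporter, measured 30 min after ONE-Glo reagent at room temperature, was the read-out. Beforehand, 2,000 cells per well were exposed for 16 hr at 37 °C to 5-fluorouridine together with compound or vehicle.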
Potency is the fitted concentration of half-maximal effect.

Row | SMILES | Potency
1 | CCOC(=O)C1=C(c2ccccc2)OC(N)=C(C#N)C1c1ccc(Br)s1 (configuration not stated) | inconclusive: 16.4 µM [activator, single point]
2 | Cc1ccc(Nc2ccc([N+](=O)[O-])nc2[N+](=O)[O-])cc1 | inactive
3 | OCCC1CN(Cc2nc(-c3ccccc3)cs2)CCN1CCc1ccccc1 (configuration not stated) | inconclusive: 20.6 µM [inhibitor, single point]
4 | Cc1ccc(-c2csc(NC(=O)c3ccc(Br)cc3)c2C(=O)O)cc1 | inconclusive: 2.31 µM [activator, partial curve, poor fit]
5 | Cc1nc(N2CCN(Cc3ccc4c(c3)OCO4)CC2)nc2c1C(=O)CC(c1ccco1)C2 (configuration not stated) | inconclusive: 18.4 µM [inhibitor, partial curve]
6 | Cc1ccccc1-c1nc2cc(NC(=O)C3CC3)ccc2o1 | inconclusive: 3.16 µM [activator, single point]
7 | C/C(=N\NC(=O)c1ccccc1N)c1ccc(NC(=O)Cc2ccccc2)cc1 | inconclusive: 20.6 µM [activator, partial curve]
8 | CCOC(=O)c1ccc(NC(=O)c2cccc3c2C(=O)N(CC2CCCO2)C3)cc1 (configuration not stated) | inconclusive: 29.1 µM [inhibitor, single point]
9 | CCCCn1c(N)c(N(CCOC)C(=O)c2cc(-c3ccccc3)nc3ccccc23)c(=O)[nH]c1=O | inconclusive: 35.5 µM [activator, single point]
10 | Clc1ccc(OCc2nc3ccccc3[nH]2)cc1 | inconclusive: 4.61 µM [activator, partial curve]
11 | C[C@]12CCC(=O)C=C1CCC1C2CC[C@@]2(C)C1CCC21OCCO1 (some centres not stated) | inconclusive: 16.4 µM [inhibitor, single point]
12 | OCCN1CCOCCOc2ccccc2OCCOCC1 | inactive
13 | CC(C)Cn1c2c(c(O)c(C(=O)Nc3nccs3)c1=O)CCCC2 | inconclusive: 29.1 µM [inhibitor, partial curve, poor fit]
14 | O=C(Nc1cc(C(=O)N2CCCC2)ccc1N1CCCC1)c1ccccc1F | inconclusive: 23.1 µM [inhibitor, single point]
15 | COc1ccc(NC(=O)c2cc3ccccc3o2)cn1 | inconclusive: 18.3 µM [activator, partial curve]
16 | COc1ccccc1CNC(=O)c1ccccc1OCc1ccc(F)cc1 | inactive
17 | COc1ccc(C(CNC(=O)c2ccc(NS(=O)(=O)c3cccc([N+](=O)[O-])c3)cc2)N2CCOCC2)cc1 (configuration not stated) | inactive
18 | CCCS(=O)(=O)n1nc(-c2ccc(OC)cc2)cc1N | inconclusive: 20.6 µM [activator, single point]
19 | CCc1cc(C(=O)NNC(=S)Nc2ccccc2C)cs1 | inconclusive: 7.31 µM [activator, partial curve]
20 | COc1ccccc1C(=O)Nc1ccc(NC(=O)C2CCCCC2)nc1 | inactive
21 | CCN1C(=O)c2cccc3c(S(=O)(=O)Nc4ccccc4O)ccc1c23 | inconclusive: 18.3 µM [activator, partial curve]
22 | Cc1c(-c2ccccc2)oc2c(C(=O)OCC(=O)Nc3cccc(F)c3)cccc2c1=O | inconclusive: 5.17 µM [inhibitor, full curve]
23 | COc1ccc(-c2cccc(C3CC=CC4C3C(=O)N(Cc3ccccc3)C4c3cc(C)ccc3F)c2)cc1 (configuration not stated) | inactive

Row | SMILES | Potency
24 | COc1ccc(N2CCOCC2)c(NC(=O)COc2cccc(C)c2)c1 | inconclusive: 16.4 µM [inhibitor, partial curve, poor fit]
25 | O=C(Nc1ccccn1)C1CCN(S(=O)(=O)c2cccc3nonc23)CC1 | inconclusive: 23.1 µM [inhibitor, single point]
26 | C=CCn1c(SCC(=O)NCc2ccc3c(c2)OCO3)nc2scc(-c3ccccc3)c2c1=O | inconclusive: 4.61 µM [inhibitor, partial curve]
27 | COc1ccc(C2=NO[C@@H]3C(=O)N(Cc4ccccc4)C(=O)[C@H]23)c(OC)c1 | inconclusive: 23.1 µM [activator, partial curve, poor fit]
28 | CCN(CC)S(=O)(=O)c1ccc(N(C)Cc2ccc(C(F)(F)F)cc2)nc1 | inactive
29 | CSc1sc(C(=O)NNC(C)=O)c2c1C=CCC2 | inactive
30 | O=C(C[C@@H]1C/C=C\C[C@@H](Cc2ccc(F)cc2)C(=O)OCCNC1=O)N[C@H](CO)Cc1ccccc1 | inconclusive: 18.3 µM [inhibitor, single point]
31 | O=C(O)c1cc(Cl)c(Cl)cc1C(=O)Nc1cccnc1 | inactive
32 | CCN(CC(=O)Nc1c(F)cccc1F)C(=O)CCc1nc2ccccc2c(=O)[nH]1 | inactive
33 | O=C(COc1ccc(Br)cc1CO)Nc1ccc(S(=O)(=O)N2CCCCC2)cc1 | active: 18.3 µM
34 | Cc1ccc(-c2nnc(CCC(=O)NCc3csc(C)n3)o2)s1 | inconclusive: 11.6 µM [activator, partial curve, poor fit]
35 | Cc1cc(C)c(NC(=O)NC2CCCCC2)c(C)c1 | inactive
36 | Cc1ccc(C)c(Nc2nc3c(S(=O)(=O)c4ccccc4)nnn3c3ccccc23)c1 | inactive
37 | Cc1nn(Cc2ccccc2)c(C)c1NC(=O)CSc1nc2c(c(C(F)(F)F)n1)CCc1ccccc1-2 | inconclusive: 18.4 µM [inhibitor, partial curve, poor fit]
38 | O=C(NC(=O)N1CCN(c2cccc(Cl)c2)CC1)c1ccccc1 | inactive
39 | COc1cccc(N2CCN(C(=O)c3cc4c(=O)n(Cc5ccccc5)ccc4nc3C)CC2)c1 | inconclusive: 13 µM [inhibitor, partial curve, poor fit]
40 | CC(=O)NC(=S)Nc1cccc2c(C)cc(C)nc12 | inactive
41 | COc1ccc(OC)c(S(=O)(=O)NC2CC(=O)N(c3cccc(F)c3)C2)c1 (configuration not stated) | inconclusive: 4.61 µM [activator, single point]
42 | C[C@]12c3[nH]c4cc(-c5ccco5)ccc4c3CCN1C(=O)[C@@H](CC(=O)NCCc1ccccn1)C[C@@H]2C(=O)N1CCOCC1 | inactive
43 | COc1ccc(C2(C(=O)c3ccccc3)C(=O)c3ccccc3C2=O)cc1 | inconclusive: 2.91 µM [activator, partial curve]
44 | Cc1ccsc1/C=C(\C#N)C(=O)NCCCN1CCOCC1 | inconclusive: 18.3 µM [activator, single point]
45 | Cc1ccc(C)c(N2CCN(S(=O)(=O)c3ccc4c(c3)C(C)(C)C(=O)N4C)CC2)c1 | inactive
46 | CCOC(=O)c1ccc(CSc2n[nH]c(C)n2)o1 | inconclusive: 20.6 µM [activator, single point]

Some of these compounds in order of count of non-hydrogen atoms, smallest number first.
Row | SMILES | Potency
34 | Cc1ccc(-c2nnc(CCC(=O)NCc3csc(C)n3)o2)s1 | inconclusive: 11.6 µM [activator, partial curve, poor fit]
22 | Cc1c(-c2ccccc2)oc2c(C(=O)OCC(=O)Nc3cccc(F)c3)cccc2c1=O | inconclusive: 5.17 µM [inhibitor, full curve]
39 | COc1cccc(N2CCN(C(=O)c3cc4c(=O)n(Cc5ccccc5)ccc4nc3C)CC2)c1 | inconclusive: 13 µM [inhibitor, partial curve, poor fit]

More records follow:

Row | SMILES | Potency
47 | COc1cc(NC(=O)Cc2nn(C)c(=O)c3ccccc23)cc(OC)c1OC | inconclusive: 32.6 µM [activator, partial curve, poor fit]
48 | O=C1C=C(NCc2ccco2)C2(CCCCC2)O1 | inactive
49 | CC[N+](C)(CC)CCOC(=O)C1c2ccccc2Oc2ccccc21 | inconclusive: 10.3 µM [activator, partial curve, poor fit]
50 | COc1ccc(C(=O)NCC2OCCc3ccccc32)cc1 (configuration not stated) | inconclusive: 35.5 µM [activator, single point]
51 | Cc1cc(C(=O)CSc2n[nH]c(N)n2)c(C)n1-c1cc(F)ccc1F | inconclusive: 10.3 µM [activator, single point]
52 | CC1CCN(c2ccc3nnc(CCC(=O)Nc4cc(F)ccc4F)n3n2)CC1 | inactive
53 | COC(=O)c1sccc1NC(=O)c1cc(OC)cc(OC)c1 | inconclusive: 18.4 µM [inhibitor, single point]
54 | COc1cccc(C(=O)OCc2cc(=O)oc3c(C)c(C)ccc23)c1OC | inconclusive: 10.3 µM [inhibitor, partial curve, poor fit]
55 | C#CCOCCOCCOCCNc1nc(N2CCOCC2)nc(N2CCN(C(=O)[C@H](Cc3cc4ccccc4[nH]3)n3cc([C@@H](N)Cc4ccc(O)cc4)nn3)CC2)n1 | inconclusive: 23.1 µM [inhibitor, partial curve, poor fit]
56 | O=S(=O)(c1ccc2ccccc2c1)N1CCN(CCO)CC1 | inactive
57 | Cc1cc2c(N)cccc2nn1 | inactive
58 | Cc1noc(C)c1CSCC(=O)N(C)CC(=O)Nc1ccc(Cl)cc1 | inconclusive: 20.6 µM [inhibitor, partial curve, poor fit]
59 | Cc1ccc(OCCN2C(=O)c3ccccc3C2=O)cc1 | inconclusive: 18.4 µM [activator, partial curve]
60 | CN(C)c1ccc(/C=N/NC(=O)c2nonc2N)cc1[N+](=O)[O-] | inactive
61 | CCOc1ccc(CN(C)CC(=O)Nc2cccc(C)c2)cc1OC | inconclusive: 29.1 µM [inhibitor, single point]
62 | CC(=O)Nc1ccc(NC(=O)C(C)OC(=O)CNS(=O)(=O)c2cccc(Cl)c2)cc1 (configuration not stated) | inactive
63 | COc1ccc(S(=O)(=O)N2CCC3(CC2)OCCN3S(=O)(=O)c2cccs2)cc1OC | inconclusive: 25.9 µM [inhibitor, single point]
64 | Cc1ccc2[nH]c3c(c2c1)CN(C(=O)CN1CCN(c2ccccc2F)CC1)CC3 | inconclusive: 23.1 µM [inhibitor, partial curve, poor fit]
65 | CCOc1ccc(C(=O)N(CN2CCCC2=O)c2ccc(C)cc2)cc1 | inconclusive: 32.6 µM [inhibitor, single point]
66 | CCOc1ccc(NC(=O)CSc2ncn[nH]2)cc1 | inconclusive: 18.3 µM [activator, partial curve, poor fit]
67 | CCc1ccccc1OCC(=O)Nc1ccc2c(c1)OCCO2 | inconclusive: 18.3 µM [activator, partial curve]
